For the assay, the target named is IL-15Rα chain (human (endogenous in RCC7)) (UniProt Q13261). As to the kind of experiment: co-IP; RCC7 cell lysate (1% NP-40, 0.1% SDS, 50 mM sodium phosphate pH 7.8, 150 mM NaCl); Sepharose-conjugated anti-IL-15Rα M161, 4 h at 4°C; blots with anti-IL-2Rβ and anti-IL-15Rα; no cytokine added.

Chains of the proteins cited; added tags and fusions are not shown. Residues count along the entry.
UniProt Q13261, residues 31-267: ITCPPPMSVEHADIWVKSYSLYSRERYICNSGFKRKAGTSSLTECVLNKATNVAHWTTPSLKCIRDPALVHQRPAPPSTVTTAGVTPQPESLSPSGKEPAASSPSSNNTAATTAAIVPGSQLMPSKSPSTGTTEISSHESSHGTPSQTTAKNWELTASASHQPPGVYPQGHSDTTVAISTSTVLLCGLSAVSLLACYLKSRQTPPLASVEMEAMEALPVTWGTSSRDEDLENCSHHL
UniProt P14784, residues 27-551: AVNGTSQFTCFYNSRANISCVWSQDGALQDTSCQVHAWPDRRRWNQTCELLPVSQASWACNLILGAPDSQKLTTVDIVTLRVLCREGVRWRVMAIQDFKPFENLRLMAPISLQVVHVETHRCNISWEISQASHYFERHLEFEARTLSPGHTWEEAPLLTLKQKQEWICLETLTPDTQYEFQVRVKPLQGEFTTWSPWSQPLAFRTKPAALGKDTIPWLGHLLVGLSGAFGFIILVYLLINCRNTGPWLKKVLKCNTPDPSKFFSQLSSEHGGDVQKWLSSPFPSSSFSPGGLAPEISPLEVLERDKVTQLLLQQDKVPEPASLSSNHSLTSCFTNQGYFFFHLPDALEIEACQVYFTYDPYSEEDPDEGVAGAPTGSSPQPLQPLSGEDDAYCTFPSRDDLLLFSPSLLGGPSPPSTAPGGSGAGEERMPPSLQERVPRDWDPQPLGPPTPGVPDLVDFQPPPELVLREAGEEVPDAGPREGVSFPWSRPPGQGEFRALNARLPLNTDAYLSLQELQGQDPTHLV

These are yes or no findings as the source states them, for the method shown. In cells and extracts the contact can be indirect. Some results given as binding are weak or reduced against the parent protein; the word gives no strength.

For “IL-2Rβ chain (from UniProt P14784 27-551) (receptor)”, the binding result is reported as “binds”.

For the origin of these results see article PMC3283658.
